Binding data for ten molecules are collected here from paper doi:10.1101/2025.10.21.683757.

Amino acid sequences for entries named in this document (tags omitted).
UniProt Q7Z460: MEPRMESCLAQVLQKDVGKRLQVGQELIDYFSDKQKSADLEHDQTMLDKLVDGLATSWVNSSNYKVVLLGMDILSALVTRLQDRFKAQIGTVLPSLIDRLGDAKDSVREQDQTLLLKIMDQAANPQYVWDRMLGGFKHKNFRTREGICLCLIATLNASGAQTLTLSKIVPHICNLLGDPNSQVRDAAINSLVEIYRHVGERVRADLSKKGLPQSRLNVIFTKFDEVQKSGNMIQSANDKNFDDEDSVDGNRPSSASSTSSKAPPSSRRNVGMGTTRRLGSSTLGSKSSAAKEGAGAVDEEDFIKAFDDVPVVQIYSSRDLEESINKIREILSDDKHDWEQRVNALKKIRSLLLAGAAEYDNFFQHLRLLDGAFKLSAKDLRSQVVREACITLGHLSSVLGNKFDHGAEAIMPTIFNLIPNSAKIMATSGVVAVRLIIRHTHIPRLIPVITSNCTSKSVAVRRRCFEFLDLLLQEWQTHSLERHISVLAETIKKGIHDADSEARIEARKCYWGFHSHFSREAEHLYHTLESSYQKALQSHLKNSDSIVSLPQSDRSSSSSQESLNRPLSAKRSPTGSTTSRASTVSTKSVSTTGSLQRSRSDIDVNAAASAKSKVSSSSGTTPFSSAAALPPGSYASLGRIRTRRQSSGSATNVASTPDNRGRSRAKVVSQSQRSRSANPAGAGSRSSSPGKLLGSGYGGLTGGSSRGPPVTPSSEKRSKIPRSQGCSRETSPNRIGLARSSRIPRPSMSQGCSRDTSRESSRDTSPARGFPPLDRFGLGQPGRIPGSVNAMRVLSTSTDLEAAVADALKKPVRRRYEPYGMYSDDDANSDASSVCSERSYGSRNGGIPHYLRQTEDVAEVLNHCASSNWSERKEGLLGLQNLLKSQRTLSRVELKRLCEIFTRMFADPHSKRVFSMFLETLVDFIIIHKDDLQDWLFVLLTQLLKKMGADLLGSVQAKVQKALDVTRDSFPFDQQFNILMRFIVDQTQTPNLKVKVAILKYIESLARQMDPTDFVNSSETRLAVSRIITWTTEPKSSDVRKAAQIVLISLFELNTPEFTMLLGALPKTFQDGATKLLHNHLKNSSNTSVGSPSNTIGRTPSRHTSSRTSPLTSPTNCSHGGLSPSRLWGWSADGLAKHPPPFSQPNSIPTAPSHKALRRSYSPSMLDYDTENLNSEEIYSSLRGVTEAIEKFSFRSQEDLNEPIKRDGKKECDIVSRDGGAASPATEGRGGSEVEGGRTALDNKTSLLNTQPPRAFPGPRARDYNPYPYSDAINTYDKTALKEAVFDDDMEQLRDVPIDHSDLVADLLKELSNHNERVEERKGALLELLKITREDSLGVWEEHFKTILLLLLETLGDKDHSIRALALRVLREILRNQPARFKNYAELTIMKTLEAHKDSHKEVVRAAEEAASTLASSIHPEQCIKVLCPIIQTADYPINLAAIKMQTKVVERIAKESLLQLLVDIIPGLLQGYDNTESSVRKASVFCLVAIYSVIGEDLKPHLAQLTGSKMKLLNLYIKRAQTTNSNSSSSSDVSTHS
UniProt P17844: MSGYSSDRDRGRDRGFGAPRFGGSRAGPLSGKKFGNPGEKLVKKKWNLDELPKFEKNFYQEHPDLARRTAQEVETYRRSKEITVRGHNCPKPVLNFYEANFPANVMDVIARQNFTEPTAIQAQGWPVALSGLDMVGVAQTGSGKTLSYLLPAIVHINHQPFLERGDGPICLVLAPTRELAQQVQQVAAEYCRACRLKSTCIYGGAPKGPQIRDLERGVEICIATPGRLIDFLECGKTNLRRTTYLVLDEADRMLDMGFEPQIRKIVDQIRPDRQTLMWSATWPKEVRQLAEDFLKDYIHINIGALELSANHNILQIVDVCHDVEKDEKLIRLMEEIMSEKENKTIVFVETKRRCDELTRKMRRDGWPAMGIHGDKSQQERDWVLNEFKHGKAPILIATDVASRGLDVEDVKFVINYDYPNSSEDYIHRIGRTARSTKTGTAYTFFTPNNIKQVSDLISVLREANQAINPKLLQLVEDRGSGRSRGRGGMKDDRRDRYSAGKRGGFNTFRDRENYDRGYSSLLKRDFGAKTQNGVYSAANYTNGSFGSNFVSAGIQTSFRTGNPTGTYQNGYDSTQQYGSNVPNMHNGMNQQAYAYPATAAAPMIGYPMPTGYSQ
UniProt P04406: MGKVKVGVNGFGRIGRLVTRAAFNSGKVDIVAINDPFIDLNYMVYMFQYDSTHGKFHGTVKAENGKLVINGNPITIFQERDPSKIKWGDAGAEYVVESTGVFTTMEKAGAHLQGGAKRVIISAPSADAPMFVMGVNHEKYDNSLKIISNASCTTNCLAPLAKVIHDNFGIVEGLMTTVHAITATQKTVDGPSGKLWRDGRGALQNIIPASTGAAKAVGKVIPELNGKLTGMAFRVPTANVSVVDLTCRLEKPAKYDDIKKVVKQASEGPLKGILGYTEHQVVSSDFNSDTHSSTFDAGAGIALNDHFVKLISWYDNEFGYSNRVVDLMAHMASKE
UniProt Q8TEQ6: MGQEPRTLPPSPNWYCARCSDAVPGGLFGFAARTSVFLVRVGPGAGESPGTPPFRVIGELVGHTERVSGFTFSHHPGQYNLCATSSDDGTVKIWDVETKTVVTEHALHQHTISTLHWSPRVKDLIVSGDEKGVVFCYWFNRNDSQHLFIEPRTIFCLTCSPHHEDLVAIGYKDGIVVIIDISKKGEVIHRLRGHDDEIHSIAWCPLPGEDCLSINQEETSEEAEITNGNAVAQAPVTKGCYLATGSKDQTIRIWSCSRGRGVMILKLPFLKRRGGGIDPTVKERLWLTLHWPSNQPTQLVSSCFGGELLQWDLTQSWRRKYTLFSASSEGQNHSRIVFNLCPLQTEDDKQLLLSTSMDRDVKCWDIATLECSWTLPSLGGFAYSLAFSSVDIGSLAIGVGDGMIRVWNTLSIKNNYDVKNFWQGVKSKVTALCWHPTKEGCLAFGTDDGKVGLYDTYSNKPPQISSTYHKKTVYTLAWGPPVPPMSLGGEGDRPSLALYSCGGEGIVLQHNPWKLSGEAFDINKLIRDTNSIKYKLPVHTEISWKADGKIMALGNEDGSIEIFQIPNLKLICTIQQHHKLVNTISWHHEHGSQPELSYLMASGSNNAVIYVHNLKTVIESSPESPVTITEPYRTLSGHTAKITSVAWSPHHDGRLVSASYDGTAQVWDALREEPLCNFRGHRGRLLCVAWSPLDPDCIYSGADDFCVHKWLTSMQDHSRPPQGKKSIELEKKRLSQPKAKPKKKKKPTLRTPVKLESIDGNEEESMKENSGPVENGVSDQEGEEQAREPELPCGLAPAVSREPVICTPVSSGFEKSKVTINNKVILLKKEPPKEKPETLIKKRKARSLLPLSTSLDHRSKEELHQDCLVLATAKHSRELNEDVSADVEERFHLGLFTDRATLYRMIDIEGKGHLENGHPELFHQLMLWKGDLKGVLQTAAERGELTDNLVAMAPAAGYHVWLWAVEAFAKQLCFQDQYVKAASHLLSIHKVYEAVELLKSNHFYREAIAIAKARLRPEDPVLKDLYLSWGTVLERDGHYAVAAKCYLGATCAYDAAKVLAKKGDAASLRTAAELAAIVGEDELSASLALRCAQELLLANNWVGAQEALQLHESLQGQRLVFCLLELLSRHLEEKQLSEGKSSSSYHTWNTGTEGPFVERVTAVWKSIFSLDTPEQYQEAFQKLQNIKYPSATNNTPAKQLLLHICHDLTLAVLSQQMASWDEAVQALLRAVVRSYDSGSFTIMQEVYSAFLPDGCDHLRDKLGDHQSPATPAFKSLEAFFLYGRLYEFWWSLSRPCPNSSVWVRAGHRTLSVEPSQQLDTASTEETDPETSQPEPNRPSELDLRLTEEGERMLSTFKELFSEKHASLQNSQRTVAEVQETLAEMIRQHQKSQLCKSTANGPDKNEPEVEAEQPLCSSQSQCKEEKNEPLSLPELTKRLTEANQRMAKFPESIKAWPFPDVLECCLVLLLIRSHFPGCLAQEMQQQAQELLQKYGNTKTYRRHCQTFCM
UniProt Q9UBN7: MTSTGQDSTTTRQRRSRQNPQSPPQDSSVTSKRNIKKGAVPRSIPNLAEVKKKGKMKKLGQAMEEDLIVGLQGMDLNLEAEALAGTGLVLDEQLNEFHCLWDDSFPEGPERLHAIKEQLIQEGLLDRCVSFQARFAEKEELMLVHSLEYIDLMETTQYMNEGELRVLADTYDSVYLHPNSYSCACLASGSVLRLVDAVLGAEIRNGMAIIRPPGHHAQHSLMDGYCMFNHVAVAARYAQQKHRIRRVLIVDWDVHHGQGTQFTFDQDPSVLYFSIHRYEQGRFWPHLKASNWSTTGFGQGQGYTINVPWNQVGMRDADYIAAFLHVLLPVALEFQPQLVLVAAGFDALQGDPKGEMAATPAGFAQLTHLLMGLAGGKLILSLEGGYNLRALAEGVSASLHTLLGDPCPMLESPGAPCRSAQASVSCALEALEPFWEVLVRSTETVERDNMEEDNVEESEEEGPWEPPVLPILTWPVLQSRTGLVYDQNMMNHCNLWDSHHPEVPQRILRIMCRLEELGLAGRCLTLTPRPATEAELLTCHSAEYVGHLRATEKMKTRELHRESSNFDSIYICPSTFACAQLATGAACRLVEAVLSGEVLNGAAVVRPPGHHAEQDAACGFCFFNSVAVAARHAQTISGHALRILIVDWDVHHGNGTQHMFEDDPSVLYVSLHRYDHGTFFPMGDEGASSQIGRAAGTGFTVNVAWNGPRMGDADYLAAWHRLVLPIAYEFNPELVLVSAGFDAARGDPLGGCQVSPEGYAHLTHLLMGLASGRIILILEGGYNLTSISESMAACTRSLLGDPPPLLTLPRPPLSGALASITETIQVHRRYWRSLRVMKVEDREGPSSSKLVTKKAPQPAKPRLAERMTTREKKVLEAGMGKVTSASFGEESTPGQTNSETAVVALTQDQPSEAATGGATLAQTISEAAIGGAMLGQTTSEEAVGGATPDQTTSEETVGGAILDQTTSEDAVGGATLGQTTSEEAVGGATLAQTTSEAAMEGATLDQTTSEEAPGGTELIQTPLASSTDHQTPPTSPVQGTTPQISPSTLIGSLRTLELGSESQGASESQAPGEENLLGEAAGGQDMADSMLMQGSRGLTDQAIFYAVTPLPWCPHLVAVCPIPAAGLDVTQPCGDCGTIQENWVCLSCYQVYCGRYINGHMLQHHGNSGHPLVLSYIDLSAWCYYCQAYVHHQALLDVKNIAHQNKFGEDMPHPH
UniProt P40763: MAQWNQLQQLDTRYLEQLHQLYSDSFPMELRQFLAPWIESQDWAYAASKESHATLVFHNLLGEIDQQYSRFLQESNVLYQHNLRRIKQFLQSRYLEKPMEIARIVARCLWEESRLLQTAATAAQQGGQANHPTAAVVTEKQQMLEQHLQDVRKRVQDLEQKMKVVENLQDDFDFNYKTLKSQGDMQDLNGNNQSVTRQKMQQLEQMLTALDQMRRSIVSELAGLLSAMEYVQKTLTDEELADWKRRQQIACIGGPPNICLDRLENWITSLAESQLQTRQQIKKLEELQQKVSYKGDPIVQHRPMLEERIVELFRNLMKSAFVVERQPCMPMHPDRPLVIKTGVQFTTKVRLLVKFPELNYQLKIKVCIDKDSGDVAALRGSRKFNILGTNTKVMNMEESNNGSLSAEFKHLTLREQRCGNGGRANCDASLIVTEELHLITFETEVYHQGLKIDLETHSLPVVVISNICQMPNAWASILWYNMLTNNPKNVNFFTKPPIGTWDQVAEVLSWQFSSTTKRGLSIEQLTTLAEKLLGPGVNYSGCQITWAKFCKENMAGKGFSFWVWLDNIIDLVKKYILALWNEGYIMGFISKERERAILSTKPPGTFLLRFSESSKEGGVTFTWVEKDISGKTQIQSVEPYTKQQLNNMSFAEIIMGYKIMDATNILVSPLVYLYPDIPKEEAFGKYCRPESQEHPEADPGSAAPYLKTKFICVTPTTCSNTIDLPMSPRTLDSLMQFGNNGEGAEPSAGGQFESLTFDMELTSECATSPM

Test in all cases: co-IP
Test [1] has as its target T1, JAKMIP1 C-terminus-mCherry fusion protein (expressed in SH-SY5Y cells) (UniProt Q96N16).
T1 sequence: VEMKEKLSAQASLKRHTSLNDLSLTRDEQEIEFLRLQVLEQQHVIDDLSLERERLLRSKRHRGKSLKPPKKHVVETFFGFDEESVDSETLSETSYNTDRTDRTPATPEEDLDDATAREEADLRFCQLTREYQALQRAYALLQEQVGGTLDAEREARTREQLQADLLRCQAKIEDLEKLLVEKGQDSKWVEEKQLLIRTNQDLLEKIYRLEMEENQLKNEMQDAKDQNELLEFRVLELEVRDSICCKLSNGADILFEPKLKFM

For test [2], the target named is T2, JAKMIP1 N-terminus-mCherry fusion protein (expressed in SH-SY5Y cells) (UniProt Q96N16).
T2 sequence: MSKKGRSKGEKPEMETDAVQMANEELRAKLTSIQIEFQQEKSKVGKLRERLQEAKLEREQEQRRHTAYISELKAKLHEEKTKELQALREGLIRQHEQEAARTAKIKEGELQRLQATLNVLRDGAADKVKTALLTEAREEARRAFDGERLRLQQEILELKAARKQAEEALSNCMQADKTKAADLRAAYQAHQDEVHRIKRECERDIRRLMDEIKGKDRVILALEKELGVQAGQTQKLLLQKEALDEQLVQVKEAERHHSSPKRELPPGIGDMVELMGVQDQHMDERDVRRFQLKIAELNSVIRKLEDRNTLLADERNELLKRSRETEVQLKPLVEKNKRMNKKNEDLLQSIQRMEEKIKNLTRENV

For test [3], the target named is full-length JAKMIP1-mCherry fusion protein (expressed in SH-SY5Y cells) (UniProt Q96N16).
Test [4] addresses T3, JAKMIP1 N-terminus-mCherry fusion protein (expressed in HEK-293 cells) (UniProt Q96N16).
T3 sequence: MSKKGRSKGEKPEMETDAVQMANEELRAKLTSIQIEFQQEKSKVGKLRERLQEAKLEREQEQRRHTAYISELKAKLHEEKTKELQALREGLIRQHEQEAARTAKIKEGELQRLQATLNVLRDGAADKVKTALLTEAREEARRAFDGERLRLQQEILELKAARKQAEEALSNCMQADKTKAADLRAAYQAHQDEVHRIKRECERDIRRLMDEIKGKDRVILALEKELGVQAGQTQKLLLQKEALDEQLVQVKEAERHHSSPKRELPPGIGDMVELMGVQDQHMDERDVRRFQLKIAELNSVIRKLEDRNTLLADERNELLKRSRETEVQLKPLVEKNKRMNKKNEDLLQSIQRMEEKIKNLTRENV

Test [5] deals with T4, JAKMIP1 C-terminus-mCherry fusion protein (expressed in HEK-293 cells) (UniProt Q96N16).
T4 sequence: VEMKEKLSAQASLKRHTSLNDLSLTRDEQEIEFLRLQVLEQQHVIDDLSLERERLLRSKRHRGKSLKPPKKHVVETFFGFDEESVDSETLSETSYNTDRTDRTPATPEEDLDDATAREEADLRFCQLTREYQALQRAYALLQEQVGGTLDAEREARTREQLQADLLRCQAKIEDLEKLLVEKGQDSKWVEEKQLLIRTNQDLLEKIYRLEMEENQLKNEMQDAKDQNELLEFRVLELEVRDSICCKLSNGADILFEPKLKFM

The target of test [6] is full-length JAKMIP1-mCherry fusion protein (expressed in HEK-293 cells) (UniProt Q96N16).

These are yes or no findings as the source states them, for the method shown. Binding seen in cells or lysates may run through a third protein. Some entries that bind do so weakly or less than the wild type. For part of these data: Where a sequence is shown, tags or fusion partners need not be part of it.

Turning to CLASP1 (from UniProt Q7Z460 1-1538), the binding result in test [1] was “binds”; in test [2], “no binding”; in test [3] it was “binds”.
On to “Cytoplasmic FMRP-Interacting Protein 1 (from UniProt Q7L576 1-1253)”, for which the binding result in test [1] is recorded as “no binding”; in test [2], “no binding”; in test [3] it was “binds”.
As to DDX5 (from UniProt P17844 1-614), the binding entry is given as “binds” in test [1], “no binding” in test [2] and “binds” in test [3].
For “EYFP-tagged JAKMIP1 construct (from UniProt Q96N16-1 1-626)”, the binding result in test [4], in test [5] and in test [6] was “binds” each time.
With GAPDH (from UniProt P04406 1-335), the binding entry in test [1], in test [2] and in test [3] was “no binding” throughout.
Regarding GEMIN5 (from UniProt Q8TEQ6 1-1508), the binding entry in test [1] is recorded as “binds”; in test [2] it was “no binding”; in test [3], “binds”.
Regarding HDAC6 (from UniProt Q9UBN7 1-1215), the binding result in test [1], in test [2] and in test [3] was “binds” in each case.
In the case of “Signal Transducer and Activator of Transcription 3 (from UniProt P40763 1-770)”, the binding result in test [1], in test [2] and in test [3] was “no binding” in each case.

B1: HDAC8 (protein, UniProt Q9BY41 1-377)
chain: MEEPEEPADSGQSLVPVYIYSPEYVSMCDSLAKIPKRASMVHSLIEAYALHKQMRIVKPKVASMEEMATFHTDAYLQHLQKVSQEGDDDHPDSIEYGLGYDCPATEGIFDYAAAIGGATITAAQCLIDGMCKVAINWSGGWHHAKKDEASGFCYLNDAVLGILRLRRKFERILYVDLDLHHGDGVEDAFSFTSKVMTVSLHKFSPGFFPGTGDVSDVGLGKGRYYSVNVPIQDGIQDEKYYQICESVLKEVYQAFNPKAVVLQLGADTIAGDPMCSFNMTPVGIGKCLKYILQWQLATLILGGGGYNLANTARCWTYLTGVILGKTLSSEIPDHEFFTAYGPDYVLEITPSCRPDRNEPHRIQQILNYIKGNLKHVV
Consider B1, for which the binding result in test [1], in test [2] and in test [3] was “binds” each time.

B2: DBN1 (protein, UniProt Q16643 1-649)
chain: MAGVSFSGHRLELLAAYEEVIREESAADWALYTYEDGSDDLKLAASGEGGLQELSGHFENQKVMYGFCSVKDSQAALPKYVLINWVGEDVPDARKCACASHVAKVAEFFQGVDVIVNASSVEDIDAGAIGQRLSNGLARLSSPVLHRLRLREDENAEPVGTTYQKTDAAVEMKRINREQFWEQAKKEEELRKEEERKKALDERLRFEQERMEQERQEQEERERRYREREQQIEEHRRKQQTLEAEEAKRRLKEQSIFGDHRDEEEETHMKKSESEVEEAAAIIAQRPDNPREFFKQQERVASASAGSCDVPSPFNHRPGSHLDSHRRMAPTPIPTRSPSDSSTASTPVAEQIERALDEVTSSQPPPLPPPPPPAQETQEPSPILDSEETRAAAPQAWAGPMEEPPQAQAPPRGPGSPAEDLMFMESAEQAVLAAPVEPATADATEIHDAADTIETDTATADTTVANNVPPAATSLIDLWPGNGEGASTLQGEPRAPTPPSGTEVTLAEVPLLDEVAPEPLLPAGEGCATLLNFDELPEPPATFCDPEEVEGESLAAPQTPTLPSALEELEQEQEPEPHLLTNGETTQKEGTQASEGYFSQSQEEEFAQSEELCAKAPPPVFYNKPPEIDITCWDADPVPEEEEGFEGGD
Turning to B2, the binding result in test [1], in test [2] and in test [3] was “binds” in each case.
